In patent publication US20190309074A1, “DEGLYCOSYLATED ANTIBODY SPECIFICALLY BINDING TO CLEC14A AND USES THEREOF” (WOORI TECHNOLOGIES CORPORATION, priority 2016, published 2019):
Results are given in words; binding and its absence hold for the method and conditions named. Some entries that bind do so weakly or less than the wild type.

Experiments:
mclec14a-CTLD-Fc = target: T1, mclec14a-CTLD-Fc (mouse, UniProt Q8VCP9 31-172, limits assumed); assay: ELISA on mclec14a-CTLD-Fc
T1 construct: domain: C-type lectin-like domain (CTLD); also called mouse clec14a-CTLD-Fc; mouse CTLD; not shown: Fc
T1 sequence (looked up): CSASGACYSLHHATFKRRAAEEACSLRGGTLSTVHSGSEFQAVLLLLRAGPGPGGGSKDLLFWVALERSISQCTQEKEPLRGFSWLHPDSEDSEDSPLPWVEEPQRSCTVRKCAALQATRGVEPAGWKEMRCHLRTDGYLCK

hclec14a-CTLD-Fc = target: T2, hclec14a-CTLD-Fc (human, UniProt Q86T13 31-172, limits assumed); assay: ELISA on hclec14a-CTLD-Fc
T2 construct: domain: C-type lectin-like domain (CTLD); also called human clec14a-CTLD-Fc; human CTLD; not shown: Fc
T2 sequence (looked up): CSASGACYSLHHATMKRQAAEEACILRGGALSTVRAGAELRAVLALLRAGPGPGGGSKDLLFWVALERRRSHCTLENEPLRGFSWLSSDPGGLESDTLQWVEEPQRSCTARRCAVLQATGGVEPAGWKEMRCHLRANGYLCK

B1: clone 1 IgG (parent CDRs grafted to the omalizumab (Xolair) framework) (antibody, V domains shown)
VH: EVQLVESGGGLVQPGGSLRLSCAVSGFTFSGYDMSWIRQAPGKGLEWVAGIYPDGGNTYYADSVKGRFTISRDDSKNTFYLQMNSLRAEDTAVYYCARGATWWVLGPFDYWGQGTLVTVSS
VL: DIQLTQSPSSLSASVGDRVTITCTGSSSNIGNNSVTWYQQKPGKAPKLLIYADSHRPSGVPSRFSGSGSGTDFTLTISSLQPEDFATYYCGAWDDSLSGYVFGQGTKVEIKR
- binding (mclec14a-CTLD-Fc): binds
- binding (hclec14a-CTLD-Fc): binds
